# From paper PMC12040169 (PLOS Biology, 2025)
# The list shows a part of the results.
# Tested on: T1, CTL2-GFP (C. trachomatis L2/434/Bu, GFP-expressing)
# T1 construct: L2/434/Bu, GFP-expressing
# Set-up: species or system HeLa; Intracellular C. trachomatis growth in HeLa cells, bulk GFP fluorescence relative to DMSO
# Conditions: bulk GFP, single well; 28.5 h, 10 µM; inhibitor
row,Structure (SMILES),% of control remaining [%]
1,O=C(c1ccco1)N1CCC(n2cnc3cccnc32)CC1 [CBK283939],129.167
2,N#Cc1ccc(CN2CCCN(C(=O)c3cccc(F)c3)CC2)cc1 [CBK304010],97.7662
3,Cc1noc(C)c1CCC(=O)N1CC[C@H]2NC(=O)c3ccccc3OCCCCC[C@H]2C1 [CBK292036],115.111
4,CCCc1cc(C(=O)OC)c(NC(=O)C2CC=CCC2C(=O)O)s1 (stereo not shown) [CBK265397],98.4519
5,Cc1ccc(C)c(NC(=O)CCNC(=O)c2cnn3cc(C)cnc23)c1 [CBK306590],125.73
6,Nc1cc(N)nc(SCc2ccccc2)n1 [CBK261266],92.0097
7,CN1[C@@H]2CC[C@H]1C[C@@H](N1Cc3cc4ccccc4n3C1=O)C2 [CBK017722],95.2683
8,c1ccc2c(OCc3nc4ccccc4[nH]3)cccc2c1 [CBK262969],42.8856
9,Cc1ccc(C2CC(c3cccnc3)Nc3nnnn32)cc1 (stereo not shown) [CBK288067],118.113
10,O=[N+]([O-])c1cc(C(F)(F)F)ccc1NC(CO)(CO)CO [CBK261838],100
11,CCOC(=O)C1(C2CCCCC2)CCN(C(=O)c2ccc(S(N)(=O)=O)cc2)CC1 [CBK137105],127.12
12,Cc1nc(-c2ccccc2)sc1CNC(=O)c1ccc([N+](=O)[O-])o1 [CBK092352],29.5023
13,O=C(CSCc1cccc(Br)c1)Nc1cccc2cccnc12 [CBK261204],105.628
14,Nc1ncc2cc(C(F)(F)F)ccc2n1 [CBK100705],97.3071
15,Oc1ccc(/N=C/C=C/c2ccc(Cl)cc2Cl)cc1-c1nc2ccccc2s1 [CBK261242],89.5558
16,CNC(=S)NNC(=O)CN1CCSCC1 [CBK262444],97.0709
17,N#Cc1ccc(N2CCN(CCCNC(=O)Nc3ccccc3)CC2)cc1 [CBK267861],117.459
18,CCCSc1nc2c(c(=O)[nH]1)C(c1ccncc1)C1=C(CCCC1=O)N2 (stereo not shown) [CBK287606],153.63
19,Cc1ncsc1CCOc1nccc(C(F)(F)F)n1 [CBK115798],117.6
20,COc1ccc(N(CC(=O)O)S(=O)(=O)c2ccccc2[N+](=O)[O-])c(OC)c1 [CBK262729],100
21,Cc1cnc(CNC(=O)Cn2nnc(-c3ccc(CN4CCC(C)CC4)cc3)n2)cn1 [CBK137067C],121.153
22,Cc1cc(C)c(OCCOCCN2CCN(C)CC2)c(Cl)c1 [CBK263744G],100
23,CCn1c(C)cc(C(=O)NC2CCN(c3ncccc3C#N)CC2)c1C [CBK306524],90.355
24,c1ccc(CC2CCN(Cc3cccnc3)CC2)cc1 [CBK126381],100
25,Cc1nc(CN2CCCC(NCc3cccc(C(N)=O)c3)C2)no1 (stereo not shown) [CBK304929],126.592
26,CC(=O)c1c(C)oc2c1cc(NS(=O)(=O)c1ccc(C(=O)O)cc1)c1ccccc12 [CBK299780],133.526
27,Cc1c(C(=O)Nc2nccs2)nnn1-c1ccccc1 [CBK287766],106.681

# Part of the list above in order of count of non-hydrogen atoms, ascending:
row,Structure (SMILES),% of control remaining [%]
14,Nc1ncc2cc(C(F)(F)F)ccc2n1 [CBK100705],97.3071
10,O=[N+]([O-])c1cc(C(F)(F)F)ccc1NC(CO)(CO)CO [CBK261838],100
9,Cc1ccc(C2CC(c3cccnc3)Nc3nnnn32)cc1 (stereo not shown) [CBK288067],118.113

# Next entries follow.

row,Structure (SMILES),% of control remaining [%]
1,Cc1cc(Cl)c(OCCNCCN)c(Br)c1 [CBK265079],122.049
2,O=C(C1=C(O)C(=O)N(CCCN2CCOCC2)C1c1ccccn1)c1ccccc1 (stereo not shown) [CBK266604],174.127
3,COC(=O)c1cnc(Sc2ccc(Cl)cc2)nc1C(F)(F)F [CBK009299],93.5449
4,CC(C)C(NS(=O)(=O)c1ccccc1)C(=O)Nc1ccccc1 (stereo not shown) [CBK270001],156.42
5,CCNC(=O)N1CC2(CCN(CCCCC3NC(=O)NC3=O)CC2)c2ccccc21 (stereo not shown) [CBK126707],111.807
6,Brc1ccc2nc(NCc3ccccn3)nc(-c3ccccc3)c2c1 [CBK266736],116.292
7,Cc1nn(C)cc1C(=O)NC1CCCC1 [CBK057851],140.05
8,CCc1cc(-c2n[nH]c(C)c2Oc2ccc(C(C)C)cc2)c(O)cc1O [CBK264940],93.3923
9,CC(Nc1cccc2ccccc12)C(=O)N/N=C/c1ccc(O)cc1O (stereo not shown) [CBK262681],43.74
10,CCC(C)c1nnc(C2(c3ccc(Br)cc3)CCOCC2)o1 (stereo not shown) [CBK306229],102.745
11,O=C(/C=C/c1ccc2c(c1)OCO2)Nc1ccc(S(=O)(=O)Nc2cnc3ccccc3n2)cc1 [CBK265445],78.0753
12,O=C(Cc1ccccc1F)NCc1nnc(-c2cccs2)o1 [CBK284632],145.443
13,CCc1nc2ccc(C(=O)Nc3ccc4c(c3)CCN4C(C)=O)cn2c1N(C=O)CC [CBK145944],149.914
14,Cc1cc(NC(=O)c2c(F)cccc2F)nc2c1c(=O)oc1ccccc12 [CBK291115],125.149
15,Cc1cc(C)nc(NC(=O)C(C)Oc2ccc(Cl)cc2Cl)n1 (stereo not shown) [CBK265600],110.66
16,Cc1ccnc(SCCn2c(N(C)Cc3ccccc3)nc3c2c(=O)n(C)c(=O)n3C)n1 [CBK269394],151.747
17,CCN(CC)CCNc1ncnc(N)c1[N+](=O)[O-] [CBK267287],126.267
18,Cc1ccc(C(=O)Nc2ccc(S(=O)(=O)N3CCCC3)cc2)cc1S(=O)(=O)Nc1ccccc1 [CBK268054],82.3038
19,CC(=O)NCCSc1cc(NC(C)C)ncn1 [CBK105293],110.619
20,COC(=O)Cn1cnc2sc(C(=O)Nc3ccccc3OC)c(C)c2c1=O [CBK071808],129.959
21,Cc1cc(C2CCCCCN2C(=O)c2nn(C)cc2Cl)on1 (stereo not shown) [CBK284843],104.896
22,COc1ccc(/C(C)=N/NC(=O)CSCc2cccc(Br)c2)cc1 [CBK261205],115.502
23,O=C(Nc1ccc(Cl)cc1)N1Cc2nc[nH]c2C[C@H]1c1nc(-c2ccncc2)no1 [CBK288964],143
24,CCOc1cc(C(c2c[nH]c3ccccc23)c2c[nH]c3ccccc23)cc([N+](=O)[O-])c1O [CBK266061],116.226
25,Fc1cc(Br)ccc1-c1cn(-c2ccccc2)nn1 [CBK113148],70.4632
26,Cc1cc(C)n(C2CCN(Cc3ccc4ccccc4n3)CC2)n1 [CBK281622],146.693
27,CC(=O)C1=C(O)C(=O)N(CC(=O)O)C1c1ccc(Br)cc1 (stereo not shown) [CBK286712],108.562

# Two of these compounds, set out differently:
row	Structure (SMILES)	% of control remaining [%]
12	O=C(Cc1ccccc1F)NCc1nnc(-c2cccs2)o1 [CBK284632]	145.443
13	CCc1nc2ccc(C(=O)Nc3ccc4c(c3)CCN4C(C)=O)cn2c1N(C=O)CC [CBK145944]	149.914

# Following part:

row,Structure (SMILES),% of control remaining [%]
1,O=C(Nc1ncccc1O)c1cnc2c(cnn2C2CCCC2)c1 [CBK305246],102.674
2,Cc1nn(C)c(C)c1OCC(=O)Nc1cc(C(C)(C)C)sc1C#N [CBK305383],110.403
3,NS(=O)(=O)c1ccc(NC(=O)CSc2ccc3ccccc3n2)cc1 [CBK265663],131.298
4,Cc1ccc(NC(=O)Nc2ccc(F)cc2)cc1S(=O)(=O)N(C)C [CBK269482],77.7678
5,COc1ccc(C(=O)C=c2[nH]c(=O)c(=Cc3ccc(C(=O)O)cc3)s2)cc1 [CBK295614],97.3844
6,CCc1c(C)nc2c(-c3ccc(OC)c(OC)c3)cnn2c1O [CBK287962],130.054
7,COc1cc(-c2nc(N)n[nH]2)cc(OC)c1OC [CBK288077],150.59
8,COc1ccc(N(CC(=O)Nc2ccc3c(c2)oc2ccccc23)S(=O)(=O)c2ccccc2)cc1 [CBK264814],137.758
9,COc1cc(C=c2sc(=CC(=O)C(C)(C)C)[nH]c2=O)ccc1OCC(=O)O [CBK296948],130.66
10,COc1nccnc1OC1CCN(Cc2ccccc2-c2ccccc2)CC1 [CBK084246],91.4315
11,Cc1cc(N2CCOC3(CCN(C(=O)c4ccc5ccccc5c4)CC3)C2)nc(N)n1 [CBK161125A],123.172
12,COc1ccc(CCN2CCC(Oc3cncc(OCC4COc5ccccc5O4)n3)C2)cc1OC (stereo not shown) [CBK084389],105.416
13,O=C1Cc2cc3ccccc3cc2C2(CCN(CCC(F)=C(F)F)CC2)N1 [CBK040033],129.681
14,O=S(=O)(c1cccs1)N1CCc2ccccc2C1 [CBK044531],63.612
15,CN(Cc1ccccc1)Cc1c(C2CCNCC2)[nH]c2ncccc12 [CBK285083],88.8798
16,COc1ccc2[nH]cc(CCNC(=O)c3ccc(-c4cccc(N(C)C)c4)nc3N(C)C(C)=O)c2c1 [CBK076589],128.645
17,O=C(O)CCCC(=O)NC(Cc1ccccc1)C(=O)Nc1ccc([N+](=O)[O-])cc1 (stereo not shown) [CBK299806],140.4
18,C/C(=N\Nc1nnc2c(n1)[nH]c1ccccc12)c1ccccn1 [CBK262054],0
19,COC1C(O)C(CO)OC1n1cc(C)c(=O)[nH]c1=O (stereo not shown) [CBK201251],152.045
20,O=C(O)c1cc(S(=O)(=O)Nc2ccccc2)ccc1O [CBK109969],91.2776
21,COc1ccc(NC(=O)CSc2nc3c(N)ncnc3[nH]2)cc1 [CBK218441],128.182
22,CCN(CC)CCCNC(=O)N1CCCCC1CO (stereo not shown) [CBK155982],98.7577
23,CCCc1cc(C(=O)N[C@@H]2CCOC[C@H]2Oc2ccc(CO)cc2)cs1 [CBK306700],135.022
24,O=C(OCc1ccccc1)N1CCC2(CC1)CN(c1ccc([N+](=O)[O-])cn1)CCO2 [CBK161111T],99.183
25,COc1ccc(/C=C2/SC(=O)N(CCNC3=NS(=O)(=O)c4ccccc43)C2=O)cc1 [CBK265545],122.661
